Laboratory results published in publication PMC7819943, “Rice protein-binding microarrays: a tool to detect cis-acting elements near promoter regions in rice”.
Some of the results follow.

Amino acid sequences for entries named in this document (tags omitted).
UniProt Q0JBA9, entry or part of it: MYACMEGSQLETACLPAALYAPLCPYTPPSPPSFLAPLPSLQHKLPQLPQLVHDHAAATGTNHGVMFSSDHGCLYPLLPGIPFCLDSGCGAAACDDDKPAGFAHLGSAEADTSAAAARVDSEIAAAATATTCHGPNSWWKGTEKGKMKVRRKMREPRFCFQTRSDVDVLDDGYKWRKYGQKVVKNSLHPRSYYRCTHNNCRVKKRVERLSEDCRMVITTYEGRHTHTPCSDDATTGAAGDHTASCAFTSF

biological target: OsWRKY34 (Oryza sativa, UniProt Q0JBA9 1-250); experiment: protein-binding microarray (RPBM); PBS, 2% BSA, 51.3 ng/ul salmon testes DNA, 50 uM zinc acetate, 200 nM TF, 25 C, 1 h; high values mean tight binding; settings: protein: recombinant; tags: N-terminal polyhistidine and DsRed monomer fusion (pET32a); label: CyDye5-dUTP incorporated in the synthesized complementary strand; 3' TTTTT single-stranded linker to array surface; dsDNA, one strand shown
In short: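 A custom Agilent array was converted to double-stranded form by primer extension with Cy5-dUTP and blocked with 2% BSA. Protein at 200 nM in PBS with 2% BSA, salmon testes DNA and 50 µM zinc acetate was applied for 1 h at 25 °C, followed by washing. The proteins were polyhistidine–DsRed N-terminal fusions of transcription factors, expressed in E. coli BL21-CodonPlus and Ni–NTA-purified. The binding signal is per-feature fluorescence intensity (arbitrary units) from an Axon 4000B scanner.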

Sequence | binding signal
AAGTCAGTATGCATATGCCTCCAATCTCTGCAGTTCCCAGCGGAGTCACCTAGTGCAG | 9250 fluorescence intensity (a.u.)
GAGTCGTCTTCTTCCTCTCTCTCTCTCTCTCAGCCAGCCCCGGAGTCACCTAGTGCAG | 8890 fluorescence intensity (a.u.)
GCCGCCGCTTGCCGCCACGCCCGTCCACCGCCGCTCCTCCCGGAGTCACCTAGTGCAG | 9640 fluorescence intensity (a.u.)
AATTTTAAGGACCATATTAGCTATTCTCCTTTTTATTTTTCGGAGTCACCTAGTGCAG | 10100 fluorescence intensity (a.u.)
CTGCTTTTTATTTTTCTCCGATTAATGTGAGAATTTCTAGCGGAGTCACCTAGTGCAG | 8690 fluorescence intensity (a.u.)
CACCTCATTGGGCTTTTATCGCGGCCTTATTTATTGTTAGCGGAGTCACCTAGTGCAG | 11000 fluorescence intensity (a.u.)
TTGGCTATCGTTGATGGATTTAACTCTTTGTTGTTTTTCTCGGAGTCACCTAGTGCAG | 9640 fluorescence intensity (a.u.)
ATTACTCCTGCATTTCCTCTCGTTTTTTCTACCTAATATTCGGAGTCACCTAGTGCAG | 8920 fluorescence intensity (a.u.)
CACAACCTTTGTTGTTTTTCTGACAAAGAAAATATAACTTCGGAGTCACCTAGTGCAG | 12000 fluorescence intensity (a.u.)
AACTGCATTGTACAACTCGTAGATATATACTACCATCCAACGGAGTCACCTAGTGCAG | 8080 fluorescence intensity (a.u.)
ATAATATGACTACTGTCCGTCCGAATCCGCTCCGATTTCACGGAGTCACCTAGTGCAG | 9740 fluorescence intensity (a.u.)
TTCTCTCCGGTCAAATTTCCACCCACAATTTCTCATGATCCGGAGTCACCTAGTGCAG | 8480 fluorescence intensity (a.u.)
CTCATCCGTCCATCGCTATCCCCTATCCTCCTCGCTGTAGCGGAGTCACCTAGTGCAG | 10600 fluorescence intensity (a.u.)
CGTGGCCTCGCCATCCGACACTGTGCCTCTCATCCCGCGACGGAGTCACCTAGTGCAG | 8290 fluorescence intensity (a.u.)
TAAGCCCATTTACATTTTCCAACCCATCCCATATTCATATCGGAGTCACCTAGTGCAG | 8270 fluorescence intensity (a.u.)
TTGATACCTTGATTTCAGTTGCACTATCAATTCTTCTTGACGGAGTCACCTAGTGCAG | 9650 fluorescence intensity (a.u.)
CCCACCACCGCATGGCCGGTGCGTTGACCTGTCAGTCTCCCGGAGTCACCTAGTGCAG | 14900 fluorescence intensity (a.u.)
CTTGCTCATCTTTGCCGATTTGTTTCTTCTCGAGAGCCTACGGAGTCACCTAGTGCAG | 14400 fluorescence intensity (a.u.)
CCTCGTGGGTGGGTGTGCGGGTGCGGGACTCGGTGGGATGCGGAGTCACCTAGTGCAG | 12100 fluorescence intensity (a.u.)
ATTCTGTTTCTTCTGCATCAGAGATTCTCGTCTGTTTAGTCGGAGTCACCTAGTGCAG | 9460 fluorescence intensity (a.u.)
AGCTTGTCCGGTCTACAACATGTGCAGTTCAGTTTTGTATCGGAGTCACCTAGTGCAG | 8560 fluorescence intensity (a.u.)

Not a retest: entries from further up.
Sequence | binding signal
CACAACCTTTGTTGTTTTTCTGACAAAGAAAATATAACTTCGGAGTCACCTAGTGCAG | 12000 fluorescence intensity (a.u.)
AACTGCATTGTACAACTCGTAGATATATACTACCATCCAACGGAGTCACCTAGTGCAG | 8080 fluorescence intensity (a.u.)
ATAATATGACTACTGTCCGTCCGAATCCGCTCCGATTTCACGGAGTCACCTAGTGCAG | 9740 fluorescence intensity (a.u.)

The list goes on.

Sequence | binding signal
GACACGACTCCACGCACCGTTCCACCTAGCAACTGACGTCCGGAGTCACCTAGTGCAG | 10200 fluorescence intensity (a.u.)
TGCGCTTGTGGTTTGTGGTGTATGTGTGTGTAATCGAGAACGGAGTCACCTAGTGCAG | 10700 fluorescence intensity (a.u.)
GCAGCCATTTCGCCCTTCTTTTTTCTTCCTTCCGAGGAAACGGAGTCACCTAGTGCAG | 9430 fluorescence intensity (a.u.)
GACCAAACATTTCCACTACTTGTCCTACTACTAACATTTTCGGAGTCACCTAGTGCAG | 13900 fluorescence intensity (a.u.)
CATATCGTCGACCGACCAACTCTTACACGATCGATCGATCCGGAGTCACCTAGTGCAG | 8290 fluorescence intensity (a.u.)
CCTCACCTCACCATTTCACCAACCACCTCGCGTACTCCGGCGGAGTCACCTAGTGCAG | 9300 fluorescence intensity (a.u.)
GAAATCCGGTGGTTGGTTGGTGGCTTAGTGCTGGCGTGCTCGGAGTCACCTAGTGCAG | 8500 fluorescence intensity (a.u.)
TTCTTGATTCTTGCTGCTTCTTGCTTCTTGTTGCTGTTGTCGGAGTCACCTAGTGCAG | 8430 fluorescence intensity (a.u.)
GTGGTGTTGGATAGTTTGATAGGCTGCTTCCCTACTAGGCCGGAGTCACCTAGTGCAG | 8340 fluorescence intensity (a.u.)
TTTGCTGTGGGATATGTGGATGAATGCATGTTATACATTACGGAGTCACCTAGTGCAG | 10400 fluorescence intensity (a.u.)
ACATTTTTACCACTATTCACACTATTGTTTGTCCTATCAACGGAGTCACCTAGTGCAG | 8330 fluorescence intensity (a.u.)
GTCTCGTCCCGTCCCTGCGCTGCACGTCTCCGCCTCCAAGCGGAGTCACCTAGTGCAG | 13100 fluorescence intensity (a.u.)
AAGTAATTATTAATTCTTTTCCTATCATTTGTTTCATTATCGGAGTCACCTAGTGCAG | 9270 fluorescence intensity (a.u.)
ATCGCCGCACGCCTCCTCTCCAGAACACTCGCCCGCCACACGGAGTCACCTAGTGCAG | 10200 fluorescence intensity (a.u.)
ATGCGCTCCGCCCTTCTCATCCTCTTCCACTTTATTACGGCGGAGTCACCTAGTGCAG | 10300 fluorescence intensity (a.u.)
CCGCGCGTCCACCTCTCGCGAGCTCGTTACCCCAAACCCTCGGAGTCACCTAGTGCAG | 10400 fluorescence intensity (a.u.)
TTTCATCCATTCCCAAGGATCATTACAATGTGCTAGTTTACGGAGTCACCTAGTGCAG | 8070 fluorescence intensity (a.u.)
ACTTCTAATATTCCTTATTTTTAATTCCGAATTTCTATAACGGAGTCACCTAGTGCAG | 8170 fluorescence intensity (a.u.)
TTCTTTCTAGTGGTGGTGGCCTGGTGGGTTAAACTGAGTTCGGAGTCACCTAGTGCAG | 8740 fluorescence intensity (a.u.)
GTGTTGTGTCGGGTGGTATGTTATTTACTCGTGTTGAGTTCGGAGTCACCTAGTGCAG | 12500 fluorescence intensity (a.u.)
CATTCTCTTGGTCATGCATATTACAGCGCCATATCCTATACGGAGTCACCTAGTGCAG | 9080 fluorescence intensity (a.u.)
